Measured values from the supplement of paper PMC12819154, “High-throughput peptide-centric local stability assay extends protein–ligand identification to membrane proteins, tissues and bacteria” (Nature Structural & Molecular Biology, 2025).
Some of the results follow. Most values lie at the level of the controls, where differences are scatter.

Sequences of proteins named here, by UniProt entry; tags and fusion partners are left off. A change or cut given only in a name is not applied to a line headed by its entry.
UniProt Q9CQD1: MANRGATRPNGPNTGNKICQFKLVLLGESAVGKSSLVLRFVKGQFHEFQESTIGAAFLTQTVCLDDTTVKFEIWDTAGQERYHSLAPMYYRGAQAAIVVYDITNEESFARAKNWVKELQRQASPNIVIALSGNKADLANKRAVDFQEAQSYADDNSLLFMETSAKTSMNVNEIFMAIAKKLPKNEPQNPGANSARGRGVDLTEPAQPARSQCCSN
UniProt Q99P30: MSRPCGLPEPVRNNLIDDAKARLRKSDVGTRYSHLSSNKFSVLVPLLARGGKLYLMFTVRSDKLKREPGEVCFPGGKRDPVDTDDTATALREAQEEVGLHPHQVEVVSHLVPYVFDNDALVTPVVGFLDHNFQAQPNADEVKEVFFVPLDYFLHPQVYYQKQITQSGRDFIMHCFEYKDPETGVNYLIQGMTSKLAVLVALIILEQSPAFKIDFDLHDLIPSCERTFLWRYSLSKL
UniProt Q9CPY1: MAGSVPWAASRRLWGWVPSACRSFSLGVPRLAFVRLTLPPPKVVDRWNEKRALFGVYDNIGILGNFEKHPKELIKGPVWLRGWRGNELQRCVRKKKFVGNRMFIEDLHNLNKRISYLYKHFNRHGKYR
UniProt Q9CQF6: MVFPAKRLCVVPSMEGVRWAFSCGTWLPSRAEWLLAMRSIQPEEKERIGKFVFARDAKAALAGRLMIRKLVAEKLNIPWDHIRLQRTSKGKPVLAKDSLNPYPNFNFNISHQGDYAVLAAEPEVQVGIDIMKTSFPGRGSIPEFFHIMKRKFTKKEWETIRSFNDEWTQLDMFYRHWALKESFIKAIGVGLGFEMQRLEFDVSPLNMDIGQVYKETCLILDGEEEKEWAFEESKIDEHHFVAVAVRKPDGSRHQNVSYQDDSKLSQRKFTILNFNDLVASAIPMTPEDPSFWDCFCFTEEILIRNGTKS
UniProt Q9CQK7: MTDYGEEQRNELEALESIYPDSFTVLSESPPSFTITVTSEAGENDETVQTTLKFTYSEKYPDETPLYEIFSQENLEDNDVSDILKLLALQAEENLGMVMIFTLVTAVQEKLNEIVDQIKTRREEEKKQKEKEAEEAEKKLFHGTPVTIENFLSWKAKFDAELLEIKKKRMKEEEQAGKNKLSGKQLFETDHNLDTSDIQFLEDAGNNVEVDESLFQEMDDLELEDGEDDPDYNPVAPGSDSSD
UniProt Q99MR8: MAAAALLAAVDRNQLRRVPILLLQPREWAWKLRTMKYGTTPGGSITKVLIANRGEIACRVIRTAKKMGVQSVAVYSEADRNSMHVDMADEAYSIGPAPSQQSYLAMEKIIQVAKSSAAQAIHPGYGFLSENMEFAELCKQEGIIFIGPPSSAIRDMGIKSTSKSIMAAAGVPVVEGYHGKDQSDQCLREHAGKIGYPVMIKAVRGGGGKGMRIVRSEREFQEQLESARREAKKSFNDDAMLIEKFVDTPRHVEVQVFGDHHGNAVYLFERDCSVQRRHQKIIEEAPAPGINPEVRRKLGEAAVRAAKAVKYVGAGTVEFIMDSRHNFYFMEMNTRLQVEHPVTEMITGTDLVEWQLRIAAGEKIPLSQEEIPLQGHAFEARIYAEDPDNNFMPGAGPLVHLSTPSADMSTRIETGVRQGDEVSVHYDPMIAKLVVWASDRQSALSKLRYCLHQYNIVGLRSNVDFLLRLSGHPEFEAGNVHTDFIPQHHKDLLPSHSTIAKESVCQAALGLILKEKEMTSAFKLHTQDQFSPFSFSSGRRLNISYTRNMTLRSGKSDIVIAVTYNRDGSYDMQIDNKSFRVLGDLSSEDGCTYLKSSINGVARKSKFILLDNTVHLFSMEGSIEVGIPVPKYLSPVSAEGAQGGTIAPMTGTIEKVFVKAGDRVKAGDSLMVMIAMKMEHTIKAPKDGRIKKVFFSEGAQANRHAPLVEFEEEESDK
UniProt Q9CQ60: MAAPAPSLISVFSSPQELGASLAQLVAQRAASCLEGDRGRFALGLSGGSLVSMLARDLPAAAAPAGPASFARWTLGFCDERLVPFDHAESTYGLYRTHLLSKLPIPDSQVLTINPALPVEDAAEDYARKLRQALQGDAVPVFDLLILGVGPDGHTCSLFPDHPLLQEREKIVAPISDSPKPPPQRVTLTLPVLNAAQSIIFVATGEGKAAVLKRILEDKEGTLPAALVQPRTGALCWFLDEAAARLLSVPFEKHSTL
UniProt Q99NB8, whole entry: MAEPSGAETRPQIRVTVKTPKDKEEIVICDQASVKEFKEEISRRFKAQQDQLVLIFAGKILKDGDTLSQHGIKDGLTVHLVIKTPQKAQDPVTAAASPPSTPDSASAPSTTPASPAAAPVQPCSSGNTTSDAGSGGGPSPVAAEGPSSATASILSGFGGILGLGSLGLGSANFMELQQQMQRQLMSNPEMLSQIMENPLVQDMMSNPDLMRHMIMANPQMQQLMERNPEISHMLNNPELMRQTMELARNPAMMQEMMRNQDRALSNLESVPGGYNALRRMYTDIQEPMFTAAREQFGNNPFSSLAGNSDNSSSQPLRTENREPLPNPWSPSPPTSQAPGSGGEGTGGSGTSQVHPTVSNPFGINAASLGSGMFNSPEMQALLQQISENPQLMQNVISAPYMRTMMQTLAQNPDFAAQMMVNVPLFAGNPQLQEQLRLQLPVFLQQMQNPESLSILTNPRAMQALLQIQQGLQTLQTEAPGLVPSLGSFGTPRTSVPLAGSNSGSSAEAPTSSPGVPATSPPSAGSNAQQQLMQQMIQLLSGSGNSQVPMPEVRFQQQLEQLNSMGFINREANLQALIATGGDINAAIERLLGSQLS
UniProt Q9CQS8, whole entry: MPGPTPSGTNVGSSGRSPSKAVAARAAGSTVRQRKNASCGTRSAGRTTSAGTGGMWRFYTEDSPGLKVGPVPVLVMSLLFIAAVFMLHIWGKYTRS
UniProt Q99N84, whole entry: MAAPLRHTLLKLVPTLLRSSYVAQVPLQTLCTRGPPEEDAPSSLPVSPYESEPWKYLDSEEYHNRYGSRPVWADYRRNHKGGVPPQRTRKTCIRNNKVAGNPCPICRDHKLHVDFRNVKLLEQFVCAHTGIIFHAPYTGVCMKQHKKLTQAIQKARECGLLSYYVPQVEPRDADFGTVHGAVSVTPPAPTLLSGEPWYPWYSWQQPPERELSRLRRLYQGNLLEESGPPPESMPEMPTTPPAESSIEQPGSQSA
UniProt Q9CPS7: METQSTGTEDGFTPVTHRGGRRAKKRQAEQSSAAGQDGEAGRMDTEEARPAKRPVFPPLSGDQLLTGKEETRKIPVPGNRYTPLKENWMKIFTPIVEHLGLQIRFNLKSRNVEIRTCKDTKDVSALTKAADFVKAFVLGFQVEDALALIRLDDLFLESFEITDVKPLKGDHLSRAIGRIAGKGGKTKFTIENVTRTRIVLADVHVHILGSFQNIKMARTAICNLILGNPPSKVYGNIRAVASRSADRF
UniProt Q9CQE2: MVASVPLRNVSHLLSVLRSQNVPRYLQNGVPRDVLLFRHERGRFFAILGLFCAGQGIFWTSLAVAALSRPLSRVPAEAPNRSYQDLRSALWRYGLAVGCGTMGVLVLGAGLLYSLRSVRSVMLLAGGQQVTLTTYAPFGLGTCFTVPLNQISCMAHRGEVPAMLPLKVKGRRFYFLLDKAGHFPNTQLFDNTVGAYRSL
UniProt Q99MR1: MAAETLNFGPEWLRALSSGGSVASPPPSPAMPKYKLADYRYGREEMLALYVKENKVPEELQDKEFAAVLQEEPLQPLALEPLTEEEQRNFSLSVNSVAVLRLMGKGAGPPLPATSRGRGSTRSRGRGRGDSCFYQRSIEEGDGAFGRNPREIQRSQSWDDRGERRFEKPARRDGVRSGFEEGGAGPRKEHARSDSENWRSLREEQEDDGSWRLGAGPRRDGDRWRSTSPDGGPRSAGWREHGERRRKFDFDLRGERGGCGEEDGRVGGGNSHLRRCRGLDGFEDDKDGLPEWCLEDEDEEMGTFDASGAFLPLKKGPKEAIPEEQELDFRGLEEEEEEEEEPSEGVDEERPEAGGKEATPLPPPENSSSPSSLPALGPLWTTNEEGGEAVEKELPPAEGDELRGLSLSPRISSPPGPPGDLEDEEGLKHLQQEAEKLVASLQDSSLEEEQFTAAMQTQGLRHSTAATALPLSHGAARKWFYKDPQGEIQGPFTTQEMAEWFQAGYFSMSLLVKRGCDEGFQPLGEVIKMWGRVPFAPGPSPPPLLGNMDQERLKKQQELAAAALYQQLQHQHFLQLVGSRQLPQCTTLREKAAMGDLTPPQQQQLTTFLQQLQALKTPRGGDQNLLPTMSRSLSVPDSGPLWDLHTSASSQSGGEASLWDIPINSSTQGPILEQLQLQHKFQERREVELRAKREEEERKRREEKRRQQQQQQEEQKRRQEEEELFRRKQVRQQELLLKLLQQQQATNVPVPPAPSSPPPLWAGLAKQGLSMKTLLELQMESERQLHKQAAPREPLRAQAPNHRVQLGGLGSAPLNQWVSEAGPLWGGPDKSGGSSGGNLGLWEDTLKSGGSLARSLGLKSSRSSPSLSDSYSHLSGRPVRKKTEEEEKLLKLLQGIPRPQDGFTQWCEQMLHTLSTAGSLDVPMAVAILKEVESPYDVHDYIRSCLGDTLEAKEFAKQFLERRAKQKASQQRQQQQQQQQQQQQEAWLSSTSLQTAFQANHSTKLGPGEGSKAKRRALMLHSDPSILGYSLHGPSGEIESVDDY
UniProt Q9CQY1, whole entry: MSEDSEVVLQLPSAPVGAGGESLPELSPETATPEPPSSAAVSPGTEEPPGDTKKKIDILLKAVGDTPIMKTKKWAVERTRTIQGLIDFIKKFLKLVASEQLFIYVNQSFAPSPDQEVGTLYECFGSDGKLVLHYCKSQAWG
UniProt Q9CR37: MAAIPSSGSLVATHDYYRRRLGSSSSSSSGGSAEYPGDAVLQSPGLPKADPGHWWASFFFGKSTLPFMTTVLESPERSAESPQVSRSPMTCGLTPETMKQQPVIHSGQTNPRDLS
UniProt Q99P81: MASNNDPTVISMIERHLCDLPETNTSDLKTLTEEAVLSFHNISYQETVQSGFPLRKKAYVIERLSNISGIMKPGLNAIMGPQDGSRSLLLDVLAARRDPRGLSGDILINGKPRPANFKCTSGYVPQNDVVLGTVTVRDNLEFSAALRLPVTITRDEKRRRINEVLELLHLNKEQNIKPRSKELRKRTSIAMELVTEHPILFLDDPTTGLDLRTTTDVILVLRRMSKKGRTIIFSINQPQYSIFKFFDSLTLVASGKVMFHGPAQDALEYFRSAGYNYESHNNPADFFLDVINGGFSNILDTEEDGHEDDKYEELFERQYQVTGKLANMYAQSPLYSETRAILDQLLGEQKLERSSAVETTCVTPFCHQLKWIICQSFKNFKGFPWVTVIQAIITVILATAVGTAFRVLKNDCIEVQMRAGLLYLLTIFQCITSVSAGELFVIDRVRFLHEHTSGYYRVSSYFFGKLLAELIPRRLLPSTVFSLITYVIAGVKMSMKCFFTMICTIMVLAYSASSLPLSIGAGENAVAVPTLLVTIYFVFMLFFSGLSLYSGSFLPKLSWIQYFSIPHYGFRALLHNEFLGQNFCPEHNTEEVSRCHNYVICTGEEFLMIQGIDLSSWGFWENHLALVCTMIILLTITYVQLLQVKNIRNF
UniProt Q99LY9: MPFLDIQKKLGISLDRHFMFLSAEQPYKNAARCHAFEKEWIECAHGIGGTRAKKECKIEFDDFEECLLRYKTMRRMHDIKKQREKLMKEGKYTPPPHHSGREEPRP
UniProt Q9CQQ0: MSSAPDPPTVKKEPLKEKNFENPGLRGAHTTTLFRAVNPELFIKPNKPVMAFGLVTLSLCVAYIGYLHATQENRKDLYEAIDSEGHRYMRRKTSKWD
UniProt Q99M03: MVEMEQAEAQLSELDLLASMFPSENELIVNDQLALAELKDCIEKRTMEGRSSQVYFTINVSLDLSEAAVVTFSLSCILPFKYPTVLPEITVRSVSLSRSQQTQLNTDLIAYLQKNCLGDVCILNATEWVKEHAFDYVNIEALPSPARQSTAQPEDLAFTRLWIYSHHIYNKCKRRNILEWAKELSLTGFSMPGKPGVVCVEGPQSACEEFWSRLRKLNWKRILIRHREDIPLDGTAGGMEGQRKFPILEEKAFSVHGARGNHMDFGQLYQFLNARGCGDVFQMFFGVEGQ
UniProt Q9CPR8: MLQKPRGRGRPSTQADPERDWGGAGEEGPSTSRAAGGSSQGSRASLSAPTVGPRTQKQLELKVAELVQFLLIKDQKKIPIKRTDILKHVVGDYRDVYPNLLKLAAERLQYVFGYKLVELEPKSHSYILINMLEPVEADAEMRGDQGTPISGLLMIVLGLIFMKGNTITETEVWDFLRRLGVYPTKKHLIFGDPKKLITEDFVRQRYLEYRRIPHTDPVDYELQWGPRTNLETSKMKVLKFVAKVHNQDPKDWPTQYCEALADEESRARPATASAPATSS
UniProt Q99LX5: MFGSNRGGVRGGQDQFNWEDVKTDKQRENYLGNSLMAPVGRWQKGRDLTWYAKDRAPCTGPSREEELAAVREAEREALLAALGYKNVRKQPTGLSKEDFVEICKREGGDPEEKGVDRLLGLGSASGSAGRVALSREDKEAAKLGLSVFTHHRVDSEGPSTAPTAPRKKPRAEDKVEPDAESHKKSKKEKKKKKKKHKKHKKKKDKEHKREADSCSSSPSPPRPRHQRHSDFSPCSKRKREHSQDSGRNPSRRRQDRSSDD

These targets were tested with CN[C@@H]1C[C@H]2O[C@@](C)([C@@H]1OC)n1c3ccccc3c3c4c(c5c6ccccc6n2c5c31)C(=O)NC4 [staurosporine] (assay: log2 fold change of tryptic peptide abundance, ligand vs vehicle (limited proteolysis) (log2 ratio); higher = more trypsin-susceptible (destabilized)). Settings: ligand concentration: 20 uM; sample: mouse liver crude lysate; replicate design: treated separately.

| Target | log2 fold change |
| --- | --- |
| UniProt Q99ML9 (peptide sequence: VGNEFSHLCDDSQKQEK, peptide start residue: 59) | 0.519 |
| UniProt Q9CQD1 (peptide sequence: GRGVDLTEPAQPAR, peptide start residue: 196) | -0.578 |
| UniProt Q99P30 (peptide sequence: EPGEVCFPGGKRDPVDTDDTATALR, peptide start residue: 67) | -0.336 |
| UniProt Q9CPY1 (peptide sequence: MFIEDLHNLNKR, peptide start residue: 102) | 0.0558 |
| UniProt Q9CQF6 (peptide sequence: KLVAEKLNIPWDHIR, peptide start residue: 69) | 0.395 |
| UniProt Q9CQK7 (peptide sequence: MKEEEQAGKNK, peptide start residue: 170) | -0.215 |
| UniProt Q99M01 (peptide sequence: LFWSEDER, peptide start residue: 331) | 0.335 |
| UniProt Q99MR8 (peptide sequence: RLNISYTR, peptide start residue: 540) | 0.44 |
| UniProt Q9CQ60 (peptide sequence: AASCLEGDR, peptide start residue: 30) | -0.442 |
| UniProt Q99NB8 (peptide sequence: RMYTDIQEPMFTAAR, peptide start residue: 279) | -0.427 |
| UniProt Q9CQT2 (peptide sequence: HEVSVPYAMNLLNGIK, peptide start residue: 59) | 0.548 |
| UniProt Q9CQS8 (peptide sequence: PGPTPSGTNVGSSGRSPSK, peptide start residue: 2) | 0.109 |
| UniProt Q99N84 (peptide sequence: VAGNPCPICR, peptide start residue: 98) | 0.106 |
| UniProt Q9CPS7 (peptide sequence: FTIENVTR, peptide start residue: 188) | 0.0855 |
| UniProt Q9CQI4 (peptide sequence: VGSGTNVCELHD, peptide start residue: 233) | -0.144 |
| UniProt Q9CQE2 (peptide sequence: NVSHLLSVLR, peptide start residue: 9) | 0.207 |

| Target | log2 fold change |
| --- | --- |
| UniProt Q9CQV5 (peptide sequence: KGWLSLHTGNLDGEDHAAER, peptide start residue: 66) | -0.255 |
| UniProt Q99MR1 (peptide sequence: SDSENWR, peptide start residue: 193) | -0.286 |
| UniProt Q9CQY1 (peptide sequence: AVGDTPIMK, peptide start residue: 62) | -0.187 |
| UniProt Q99PP6 (peptide sequence: VCQACLITKK, peptide start residue: 34) | 0.123 |
| UniProt Q99MS3 (peptide sequence: EASDKSPEK, peptide start residue: 186) | 0.00737 |
| UniProt Q9CR37 (peptide sequence: QQPVIHSGQTNPR, peptide start residue: 100) | 0.191 |
| UniProt Q99P81 (peptide sequence: AILDQLLGEQKLER, peptide start residue: 340) | 0.15 |
| UniProt Q99LY9 (peptide sequence: EWIECAHGIGGTR, peptide start residue: 39) | -0.567 |
| UniProt Q9CQQ0 (peptide sequence: KEPLKEK, peptide start residue: 12) | 0.154 |
| UniProt Q99M03 (peptide sequence: HREDIPLDGTAGGMEGQR, peptide start residue: 226) | -0.167 |
| UniProt Q9CQR5 (peptide sequence: HLNGLQHLK, peptide start residue: 24) | 0.617 |
| UniProt Q9CPY7 (peptide sequence: EMLNISGPPLK, peptide start residue: 69) | -0.278 |
| UniProt Q9CPR8 (peptide sequence: ASLSAPTVGPR, peptide start residue: 44) | -0.137 |
| UniProt Q9CQR2 (peptide sequence: LAKADGIVSKNF, peptide start residue: 72) | 1.46 |
| UniProt Q99LX5 (peptide sequence: APCTGPSREEELAAVR, peptide start residue: 56) | -0.733 |
